Target: T1, CYP79A118 full-length (CYP79A118-M1) (Taxus baccata, UniProt A0A288W866)
T1 construct: full-length ORF; yeast WAT11 microsomes with Arabidopsis CPR1; pESC-Leu2d
Type: biochemical
Conditions: 1 mM substrate; NADPH 1 mM; Arabidopsis CPR1 in microsomes; 75 mM sodium phosphate pH 7.0; 25 °C; product p-hydroxyphenylacetaldoxime

Sequences of proteins named here, by UniProt entry; tags and fusion partners are left off.
UniProt A0A288W866, entry or part of it: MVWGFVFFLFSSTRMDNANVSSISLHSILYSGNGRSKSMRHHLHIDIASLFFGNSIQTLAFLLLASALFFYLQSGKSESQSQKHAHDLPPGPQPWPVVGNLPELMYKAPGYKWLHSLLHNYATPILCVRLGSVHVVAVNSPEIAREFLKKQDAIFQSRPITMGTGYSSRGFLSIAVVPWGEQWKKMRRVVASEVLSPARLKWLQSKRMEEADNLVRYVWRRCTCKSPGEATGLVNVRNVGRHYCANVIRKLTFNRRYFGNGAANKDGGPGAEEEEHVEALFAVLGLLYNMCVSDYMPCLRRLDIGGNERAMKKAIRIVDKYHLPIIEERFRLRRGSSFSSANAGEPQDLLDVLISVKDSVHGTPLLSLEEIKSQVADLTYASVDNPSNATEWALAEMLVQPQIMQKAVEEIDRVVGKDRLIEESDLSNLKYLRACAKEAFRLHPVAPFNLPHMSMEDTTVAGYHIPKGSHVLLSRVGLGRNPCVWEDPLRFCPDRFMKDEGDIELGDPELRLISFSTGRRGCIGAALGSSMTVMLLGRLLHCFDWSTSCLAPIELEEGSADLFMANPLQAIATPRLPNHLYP

Structure (SMILES): N[C@@H](Cc1ccc(O)cc1)C(=O)O [Tyr, L-tyrosine]
- LC-MS/MS of aldoxime product, yeast microsomes: the full-length protein as well as the truncated version showed enzymatic activity with the aromatic
